Data as given in patent US20200392471.

The chains behind the UniProt entries cited, without tags or fusion partners.
UniProt P19821, whole entry: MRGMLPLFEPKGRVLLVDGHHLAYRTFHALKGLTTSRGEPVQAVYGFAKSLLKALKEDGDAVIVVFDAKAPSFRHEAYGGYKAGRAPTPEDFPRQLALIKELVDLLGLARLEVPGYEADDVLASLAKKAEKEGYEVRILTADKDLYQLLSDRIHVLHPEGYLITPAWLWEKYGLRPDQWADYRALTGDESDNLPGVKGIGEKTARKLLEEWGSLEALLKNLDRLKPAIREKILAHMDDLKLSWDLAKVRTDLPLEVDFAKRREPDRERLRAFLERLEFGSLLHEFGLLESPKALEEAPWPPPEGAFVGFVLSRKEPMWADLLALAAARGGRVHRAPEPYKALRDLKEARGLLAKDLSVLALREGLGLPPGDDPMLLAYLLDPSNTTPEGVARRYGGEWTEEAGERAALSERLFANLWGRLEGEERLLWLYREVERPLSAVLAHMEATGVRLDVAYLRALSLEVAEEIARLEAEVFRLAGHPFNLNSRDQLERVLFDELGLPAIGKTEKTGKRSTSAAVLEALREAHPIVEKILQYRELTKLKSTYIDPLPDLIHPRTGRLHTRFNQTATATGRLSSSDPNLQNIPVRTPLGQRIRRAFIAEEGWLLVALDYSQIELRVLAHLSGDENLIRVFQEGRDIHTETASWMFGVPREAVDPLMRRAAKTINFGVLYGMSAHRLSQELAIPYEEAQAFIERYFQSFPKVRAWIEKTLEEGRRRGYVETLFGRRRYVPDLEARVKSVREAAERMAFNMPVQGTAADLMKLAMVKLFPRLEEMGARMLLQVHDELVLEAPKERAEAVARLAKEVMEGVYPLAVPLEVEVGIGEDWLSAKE

Tests used:
[1] = molecular target: T1, Afu Uracil-DNA Glycosylase (UniProt O28007); assay: activity assay; conditions: deoxyuridine at loop position 12; UDG reactivates blocked Taq, Phusion, Q5, Vent and Deep Vent; purified recombinant protein; protein details: New England Biolabs M0279S; folded or branched DNA
T1 sequence (looked up, limits assumed): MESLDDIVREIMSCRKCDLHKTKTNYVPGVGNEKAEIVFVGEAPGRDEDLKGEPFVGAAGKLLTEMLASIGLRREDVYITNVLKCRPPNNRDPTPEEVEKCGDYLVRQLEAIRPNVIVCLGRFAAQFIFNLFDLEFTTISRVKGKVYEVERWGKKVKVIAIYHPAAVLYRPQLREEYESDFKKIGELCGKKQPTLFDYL

[2] = tested on: Q5 DNA polymerase; assay: inhibition of the protein; conditions: deoxyuridine at loop position 12; 80 nM; hairpin probe extension at 60 or 65 C; 5 mM MgCl2, 50 mM KCl, pH 8.0; efficiency variable; purified recombinant …; protein details: New England Biolabs M0491S; folded or branched DNA
[3] = molecular target: T2, Bst DNA polymerase large fragment (UniProt P52026); assay: inhibition of the protein; conditions: deoxyuridine at loop position 12; not inactivated at 80 nM; hairpin probe extension at 60 or 65 C; purified recombinant protein; protein details: large fragment, New England Biolabs M0275S; folded or branched DNA
T2 sequence (looked up, limits assumed): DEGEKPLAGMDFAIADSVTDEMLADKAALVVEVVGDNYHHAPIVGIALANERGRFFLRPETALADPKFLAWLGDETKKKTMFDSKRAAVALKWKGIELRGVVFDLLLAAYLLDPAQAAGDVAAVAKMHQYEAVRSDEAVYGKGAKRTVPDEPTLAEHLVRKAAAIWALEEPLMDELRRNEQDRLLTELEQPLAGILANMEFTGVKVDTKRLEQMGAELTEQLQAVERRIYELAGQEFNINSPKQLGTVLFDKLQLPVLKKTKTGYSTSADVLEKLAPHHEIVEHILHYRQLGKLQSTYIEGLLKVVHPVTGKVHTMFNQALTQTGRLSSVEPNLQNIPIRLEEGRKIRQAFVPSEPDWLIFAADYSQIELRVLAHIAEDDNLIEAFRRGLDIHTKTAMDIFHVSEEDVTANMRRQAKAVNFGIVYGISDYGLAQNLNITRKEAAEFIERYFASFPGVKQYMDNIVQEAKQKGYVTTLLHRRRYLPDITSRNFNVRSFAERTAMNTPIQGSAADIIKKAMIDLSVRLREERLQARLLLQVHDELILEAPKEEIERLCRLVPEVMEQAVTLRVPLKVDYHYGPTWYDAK

[4] = tested on: Phusion DNA polymerase; assay: inhibition of the protein; conditions: deoxyuridine at loop position 12; 80 nM; hairpin probe extension at 60 or 65 C; 5 mM MgCl2, 50 mM KCl, pH 8.0; efficiency variable; purified recombinant …; protein details: New England Biolabs M0530S; folded or branched DNA
[5] = molecular target: T3, Deep Vent DNA polymerase (UniProt Q51334); assay: inhibition of the protein; conditions: deoxyuridine at loop position 12; 80 nM; hairpin probe extension at 60 or 65 C; 5 mM MgCl2, 50 mM KCl, pH 8.0; efficiency variable; purified recombinant …; protein details: New England Biolabs M0258S; folded or branched DNA
T3 sequence (looked up, limits assumed): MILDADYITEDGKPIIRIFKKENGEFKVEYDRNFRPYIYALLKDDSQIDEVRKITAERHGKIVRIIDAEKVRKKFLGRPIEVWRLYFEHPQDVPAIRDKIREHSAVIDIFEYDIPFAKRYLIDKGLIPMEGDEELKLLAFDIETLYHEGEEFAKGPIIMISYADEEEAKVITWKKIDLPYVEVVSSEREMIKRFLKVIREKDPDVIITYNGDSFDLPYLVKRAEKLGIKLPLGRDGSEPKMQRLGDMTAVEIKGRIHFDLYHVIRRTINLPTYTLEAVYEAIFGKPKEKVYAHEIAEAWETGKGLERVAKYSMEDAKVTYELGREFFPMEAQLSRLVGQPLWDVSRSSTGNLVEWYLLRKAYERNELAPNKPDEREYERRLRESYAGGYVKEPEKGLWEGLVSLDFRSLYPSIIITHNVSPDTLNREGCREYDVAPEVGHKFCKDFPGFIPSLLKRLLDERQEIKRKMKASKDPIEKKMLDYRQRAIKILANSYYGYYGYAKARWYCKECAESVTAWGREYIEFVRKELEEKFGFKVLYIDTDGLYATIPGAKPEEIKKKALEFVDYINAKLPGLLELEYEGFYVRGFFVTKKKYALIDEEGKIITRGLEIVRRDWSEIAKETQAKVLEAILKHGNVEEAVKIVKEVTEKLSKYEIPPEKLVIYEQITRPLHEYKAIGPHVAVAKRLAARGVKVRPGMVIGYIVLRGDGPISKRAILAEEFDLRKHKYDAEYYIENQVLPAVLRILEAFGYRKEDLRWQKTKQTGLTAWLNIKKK

[6] = molecular target: Taq DNA polymerase (UniProt P19821); assay: inhibition of the protein; conditions: deoxyuridine at loop position 12; 80 nM aptamer blocks PCR and hairpin probe extension; 5 mM MgCl2, 50 mM KCl, pH 8.0; purified recombinant protein; protein details: GenScript E00007; folded or branched DNA
[7] = molecular target: T4, Vent DNA polymerase (UniProt P30317); assay: inhibition of the protein; conditions: deoxyuridine at loop position 12; 80 nM; hairpin probe extension at 60 or 65 C; 5 mM MgCl2, 50 mM KCl, pH 8.0; efficiency variable; purified recombinant …; protein details: New England Biolabs M0254S; folded or branched DNA
T4 sequence (looked up, limits assumed): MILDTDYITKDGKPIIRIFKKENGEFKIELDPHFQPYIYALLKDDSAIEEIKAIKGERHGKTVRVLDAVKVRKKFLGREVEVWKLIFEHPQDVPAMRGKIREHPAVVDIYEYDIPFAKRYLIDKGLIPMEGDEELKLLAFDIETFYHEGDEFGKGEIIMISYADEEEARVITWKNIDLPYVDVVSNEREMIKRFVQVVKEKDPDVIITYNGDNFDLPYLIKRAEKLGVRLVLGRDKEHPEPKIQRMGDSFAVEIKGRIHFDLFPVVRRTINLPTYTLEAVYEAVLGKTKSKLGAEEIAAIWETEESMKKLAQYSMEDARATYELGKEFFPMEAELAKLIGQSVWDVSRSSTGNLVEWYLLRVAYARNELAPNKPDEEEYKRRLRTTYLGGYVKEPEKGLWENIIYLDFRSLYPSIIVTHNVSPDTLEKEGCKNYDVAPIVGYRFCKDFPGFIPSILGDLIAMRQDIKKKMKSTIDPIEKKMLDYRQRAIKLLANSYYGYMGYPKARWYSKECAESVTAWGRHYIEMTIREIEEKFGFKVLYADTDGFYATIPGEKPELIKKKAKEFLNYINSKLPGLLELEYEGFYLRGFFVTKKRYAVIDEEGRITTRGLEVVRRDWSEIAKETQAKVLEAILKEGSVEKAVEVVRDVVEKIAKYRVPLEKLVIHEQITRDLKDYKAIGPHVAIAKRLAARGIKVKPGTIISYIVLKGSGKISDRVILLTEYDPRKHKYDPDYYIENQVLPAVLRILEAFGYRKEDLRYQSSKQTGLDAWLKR

Sequence: TGCGCGATTTAAAGCGATTCTTAGCGTTUTCGCTTTAAATCGCGCAT [aptamer SEQ ID NO:12]
- activity on this sequence [1]: active
- functional effect of the aptamer [2]: active
- functional effect of the aptamer [3]: not active
- functional effect of the aptamer [4]: active
- functional effect of the aptamer [5]: active
- functional effect of the aptamer [6]: active
- functional effect of the aptamer [7]: active

For some of these results: No signal at the amounts used counts as a negative. For some of these results: Where a protein sequence is shown, tags need not be part of it. For some of these results: For at least one entry, the source does not settle the construct or the ends of the probe.
